Laboratory results: patent US20160256535A1, “HEXAPEPTIDE AND USES THEREOF” (priority 2013, published 2016)

What was measured:
Assay in all cases: Determination of platinum in culture medium and cell pellet by atomic absorption spectrophotometry
Format in all cases: cell-based, human
Settings in all cases: 92 μM, 3 hours
HUH-7 = system: HUH-7
Experimental: (§1) The cells to be examined, after the incubation period, were harvested, washed twice in buffered solution (PBS) and treated with 50 μl of 35% HNO3 for 16 hours. The platinum (Pt) contained in the culture medium or in the cell pellet was determined by spectrophotometer at atomic absorption (Analyst 800, Perkin-Elmer, Norwalk, Conn.) using the following criteria: temperature of pretreatment, 1300° C., temperature of atomizing 2200° C. 0.015 μg of palladium were used (palladium has been used for the modification of the matrix) and 0.01 μg of Mg (NO3)2 as a modifier of the matrix. The determinations were performed using a graphite furnace equipped with the correction system of the Zeeman effect. For the determination of the metal, tubes of pyrolytic graphite coated with THGA were used (Perkin-Elmer) with an integrated “vov-type platform” system. A standard solution of platinum in 2.5% HNO3 (Spectrascan) was used as a mother solution for the construction of a calibration curve with three points of reference. Each determination was performed independently, in triplicate (11).

MCF-7 = system: MCF-7
Experimental: as §1

DU145 = system: DU145
Experimental: as §1

A2780 = system: A2780
Experimental: as §1

A375 = system: A375
Experimental: as §1

Row | Molecule | Pt in the culture medium (HUH-7) | Pt in the culture medium (MCF-7) | Pt in the culture medium (DU145) | Pt in the culture medium (A2780) | Pt in the culture medium (A375)
1 | N.N.[Cl][Pt][Cl] [CC, cisplatin, reference compound] | 18885 µg/L | 29200 µg/L | 18455 µg/L | 21715 µg/L | 22095 µg/L
2 | Lp-CC (AVCGTG) | 2257 µg/L | 2257 µg/L | 2476 µg/L | 2437.5 µg/L | –
